PMC8307317 (Molecules, 2021)
Strings that start with PEPTIDE1 are HELM notation: dots part the residues, brackets hold end groups and non-standard residues.

Experiment: general procedure: Fmoc solid-phase peptide synthesis; Rink amide MBHA resin; HBTU/DIEA
Details: whole synthesis, analytical RP-HPLC, Vydac 218TP54 C18, scale of the general procedure 0.1 mmol

Final HPLC purity, 98.9%:
PEPTIDE1{G.G.F.S.[NMePhe].R.F.[am]}$$$$V2.0

Final HPLC purity, 99.9%:
PEPTIDE1{G.G.F.S.F.R.W.[am]}$$$$V2.0
PEPTIDE1{G.G.F.S.F.R.[Tic].[am]}$$$$V2.0
PEPTIDE1{[Cmpi(3-Pyg)].S.F.R.F.[am]}$$$$V2.0 [64]
PEPTIDE1{G.G.[NMePhe].S.F.R.F.[am]}$$$$V2.0
PEPTIDE1{[Cmpi(4-TfmPhg)].S.F.R.F.[am]}$$$$V2.0
PEPTIDE1{G.G.F.S.[Oic].R.F.[am]}$$$$V2.0
PEPTIDE1{G.G.F.S.[Tic].R.F.[am]}$$$$V2.0
PEPTIDE1{[Cmpi(Phg)].S.F.R.F.[am]}$$$$V2.0
PEPTIDE1{G.G.[dW].S.F.R.F.[am]}$$$$V2.0
PEPTIDE1{G.G.F.S.F.R.[2Nal].[am]}$$$$V2.0
PEPTIDE1{G.G.F.S.W.R.F.[am]}$$$$V2.0
PEPTIDE1{G.G.F.S.[NPhe].R.F.[am]}$$$$V2.0
PEPTIDE1{G.G.F.S.F.R.[NPhe].[am]}$$$$V2.0
PEPTIDE1{[Cmpi(4-MeOPhg)].S.F.R.F.[am]}$$$$V2.0
PEPTIDE1{G.G.F.S.[2Nal].R.F.[am]}$$$$V2.0
PEPTIDE1{G.G.C.S.C.R.F.[am]}$PEPTIDE1,PEPTIDE1,3:R3-5:R3$$$V2.0
PEPTIDE1{G.G.F.S.F.R.[AHPPA].[am]}$$$$V2.0
PEPTIDE1{G.G.[DTic].S.F.R.F.[am]}$$$$V2.0
PEPTIDE1{G.G.F.S.[Thi].R.F.[am]}$$$$V2.0
PEPTIDE1{G.G.F.S.C.R.C.[am]}$PEPTIDE1,PEPTIDE1,5:R3-7:R3$$$V2.0
PEPTIDE1{[Cmpi(4-FPhg)].S.F.R.F.[am]}$$$$V2.0 [52]
PEPTIDE1{G.G.F.S.F.R.[NMePhe].[am]}$$$$V2.0
PEPTIDE1{G.G.F.S.[dW].R.F.[am]}$$$$V2.0
PEPTIDE1{[Cmpi(3,4-diMeOPhg)].S.F.R.F.[am]}$$$$V2.0
PEPTIDE1{G.G.F.S.[AHPPA].R.F.[am]}$$$$V2.0
PEPTIDE1{[Cmpi(3-FPhg)].S.F.R.F.[am]}$$$$V2.0 [53]
PEPTIDE1{G.G.[Oic].S.F.R.F.[am]}$$$$V2.0
PEPTIDE1{G.G.[NPhe].S.F.R.F.[am]}$$$$V2.0
PEPTIDE1{G.G.C.S.F.R.C.[am]}$PEPTIDE1,PEPTIDE1,3:R3-7:R3$$$V2.0
PEPTIDE1{G.G.[Thi].S.F.R.F.[am]}$$$$V2.0
PEPTIDE1{G.G.F.S.F.R.[Oic].[am]}$$$$V2.0
PEPTIDE1{[Cmpi(4-FPhg)].S.F.R.F.[am]}$$$$V2.0 [51]
PEPTIDE1{G.G.W.S.F.R.F.[am]}$$$$V2.0
PEPTIDE1{[Cmpi(3-FPhg)].S.F.R.F.[am]}$$$$V2.0 [54]
PEPTIDE1{[Cmpi(3-Pyg)].S.F.R.F.[am]}$$$$V2.0 [63]
PEPTIDE1{G.G.F.S.F.R.[Thi].[am]}$$$$V2.0
PEPTIDE1{G.G.[2Nal].S.F.R.F.[am]}$$$$V2.0
PEPTIDE1{G.G.F.S.F.R.F.[am]}$$$$V2.0
PEPTIDE1{G.G.[Tic].S.F.R.F.[am]}$$$$V2.0
PEPTIDE1{G.G.[AHPPA].S.F.R.F.[am]}$$$$V2.0
PEPTIDE1{G.G.F.S.F.R.[dW].[am]}$$$$V2.0

Final HPLC purity, 97.8%:
PEPTIDE1{G.G.[Phg].S.F.R.F.[am]}$$$$V2.0
